Results deposited as PubChem BioAssay AID1259254 (NCATS, 2017)
Shown is a random part of about 59,000 reagents tested. In the full data, about 1,550 (2.6%) are marked active. 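G2 share is only a proxy for re-replication; each gene was hit by three separate siRNAs, and active genes were retested.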 The raw values are shown without normalisation. The numbers tell different reagents against one gene apart. Not stated in the record: the amount of reagent.

Purpose: 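Genome-wide screen for genes that prevent DNA re-replication in cancer cells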 (primary screen)
Cells: human HCT116 colorectal cancer cells
Reagent: single siRNA against human genes
Timing: 3 days
Measured: 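Imaged Hoechst DNA stain sorts each cell into a cycle phase by DNA amount; per plate, G2 fraction set to 0% for non-targeting and 100% for GMNN siRNA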
Scale: G2 robust z-score and G2 cells, % of GMNN control: higher = more G2 cells, more excess DNA replication; raw share of cells in G2: higher = larger share of cells with G2 DNA content
Active means: 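An siRNA counts as active if its G2 robust z-score lies at least 5 MADs above the screen median; here such calls match roughly 38% of GMNN control or more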

| target | reagent no. | G2 robust z-score | G2 cells, % of GMNN control | raw share of cells in G2 (%) | call |
| --- | --- | --- | --- | --- | --- |
| CACNG5 | 1 | 4 | 31.1 | 15.3 | inactive |
| CACNG5 | 2 | -0.532 | -0.778 | 5.01 | inactive |
| CACNG5 | 3 | -0.927 | -3.55 | 2.99 | inactive |
| FBXO31 | 1 | -0.11 | 2.2 | 5.36 | inactive |
| FBXO31 | 2 | 0.345 | 5.39 | 6.66 | inactive |
| FBXO31 | 3 | -0.588 | -1.17 | 2.06 | inactive |
| NAXE | 1 | 1.4 | 12.9 | 9.02 | inactive |
| NAXE | 2 | 1.96 | 16.8 | 8.43 | inactive |
| NAXE | 3 | -0.658 | -1.67 | 1.98 | inactive |
| VPS13D | 1 | 0.733 | 8.12 | 7.65 | inactive |
| VPS13D | 2 | -0.137 | 2 | 4.97 | inactive |
| VPS13D | 3 | -0.307 | 0.805 | 3.39 | inactive |
| CRYBB1 | 1 | 1.04 | 10.3 | 10.1 | inactive |
| CRYBB1 | 2 | 2.18 | 18.3 | 10.8 | inactive |
| CRYBB1 | 3 | -0.387 | 0.247 | 3.62 | inactive |
| ZC3H10 | 1 | 0.4 | 5.78 | 6.93 | inactive |
| ZC3H10 | 2 | -0.736 | -2.21 | 4.51 | inactive |
| ZC3H10 | 3 | -0.183 | 1.68 | 4.8 | inactive |
| OR2A12 | 1 | -0.268 | 1.08 | 4.36 | inactive |
| OR2A12 | 2 | -0.487 | -0.461 | 3.06 | inactive |
| OR2A12 | 3 | -0.473 | -0.36 | 4.04 | inactive |
| RDH16 | 1 | -0.684 | -1.85 | 3.7 | inactive |
| RDH16 | 2 | 7.01 | 52.3 | 23.4 | active |
| RDH16 | 3 | -1.23 | -5.68 | 3.27 | inactive |
| MIR3945HG | 1 | 0.157 | 4.07 | 5.03 | inactive |
| MIR3945HG | 2 | 0.00219 | 2.98 | 4.84 | inactive |
| MIR3945HG | 3 | 0.025 | 3.14 | 4.79 | inactive |
| NSDHL | 1 | 0.579 | 7.04 | 9.15 | inactive |
| NSDHL | 2 | -0.779 | -2.51 | 3.32 | inactive |
| NSDHL | 3 | -0.586 | -1.15 | 3.36 | inactive |
| BEX4 | 1 | 1.79 | 15.5 | 10.5 | inactive |
| BEX4 | 2 | -0.114 | 2.17 | 5.49 | inactive |
| BEX4 | 3 | -0.191 | 1.62 | 3.54 | inactive |
| CALR3 | 1 | 1.61 | 14.3 | 8 | inactive |
| CALR3 | 2 | 12 | 87.4 | 33.5 | active |
| CALR3 | 3 | 0.637 | 7.45 | 6.14 | inactive |
| GLRX5 | 1 | -0.591 | -1.19 | 3.4 | inactive |
| GLRX5 | 2 | -0.0869 | 2.36 | 5.44 | inactive |
| GLRX5 | 3 | 1.05 | 10.3 | 6.51 | inactive |
| NOX4 | 1 | -1.05 | -4.42 | 2.11 | inactive |
| NOX4 | 2 | 12.9 | 93.7 | 48.4 | active |
| NOX4 | 3 | 0.0853 | 3.57 | 5.56 | inactive |

Next part; the last 4 above are carried over.
| target | reagent no. | G2 robust z-score | G2 cells, % of GMNN control | raw share of cells in G2 (%) | call |
| --- | --- | --- | --- | --- | --- |
| GLRX5 | 3 | 1.05 | 10.3 | 6.51 | inactive |
| NOX4 | 1 | -1.05 | -4.42 | 2.11 | inactive |
| NOX4 | 2 | 12.9 | 93.7 | 48.4 | active |
| NOX4 | 3 | 0.0853 | 3.57 | 5.56 | inactive |
| FAM238A | 1 | 1.85 | 16 | 9.16 | inactive |
| FAM238A | 2 | 0.106 | 3.72 | 4.22 | inactive |
| FAM238A | 3 | -1.13 | -4.99 | 1.89 | inactive |
| CHCHD6 | 1 | 0.3 | 5.08 | 5.8 | inactive |
| CHCHD6 | 2 | 1.11 | 10.8 | 6.66 | inactive |
| CHCHD6 | 3 | -0.124 | 2.1 | 3.04 | inactive |
| EGF | 1 | -0.961 | -3.79 | 3.86 | inactive |
| EGF | 2 | 0.111 | 3.75 | 6.69 | inactive |
| EGF | 3 | 0.944 | 9.61 | 7.08 | inactive |
| CFHR1 | 1 | -1 | -4.09 | 1.92 | inactive |
| CFHR1 | 2 | 0.253 | 4.74 | 7.53 | inactive |
| CFHR1 | 3 | -0.85 | -3.01 | 2.98 | inactive |
| PGA5 | 1 | -0.402 | 0.14 | 3.54 | inactive |
| PGA5 | 2 | -0.473 | -0.364 | 4.68 | inactive |
| PGA5 | 3 | -0.104 | 2.23 | 4.98 | inactive |
| TUT7 | 1 | 1.21 | 11.5 | 9.21 | inactive |
| TUT7 | 2 | 1.83 | 15.8 | 11.2 | inactive |
| TUT7 | 3 | 0.53 | 6.7 | 4.21 | inactive |
| PARP14 | 1 | -0.914 | -3.46 | 2.47 | inactive |
| PARP14 | 2 | -0.317 | 0.734 | 4.51 | inactive |
| PARP14 | 3 | -1.11 | -4.83 | 3.76 | inactive |
| CAPZA3 | 1 | 0.288 | 5 | 6.09 | inactive |
| CAPZA3 | 2 | -0.891 | -3.3 | 2.35 | inactive |
| CAPZA3 | 3 | -0.619 | -1.39 | 1.41 | inactive |
| TECRL | 1 | -0.402 | 0.137 | 3.63 | inactive |
| TECRL | 2 | 0.895 | 9.26 | 6.3 | inactive |
| TECRL | 3 | 0.515 | 6.59 | 5.3 | inactive |
| ARL15 | 1 | 0.526 | 6.67 | 8.98 | inactive |
| ARL15 | 2 | -0.557 | -0.951 | 3.89 | inactive |
| ARL15 | 3 | -0.41 | 0.0819 | 3.83 | inactive |
| ANKMY1 | 1 | 1.6 | 14.2 | 9.28 | inactive |
| ANKMY1 | 2 | -0.0052 | 2.93 | 5.66 | inactive |
| ANKMY1 | 3 | 0.714 | 7.99 | 5.77 | inactive |
| MEFV | 1 | -0.603 | -1.27 | 4.87 | inactive |
| MEFV | 2 | -0.371 | 0.355 | 3.31 | inactive |
| MEFV | 3 | 1.35 | 12.4 | 10.4 | inactive |
| KRT85 | 1 | 9.4 | 69.1 | 32.9 | active |
| KRT85 | 2 | -1.06 | -4.5 | 1.71 | inactive |
| KRT85 | 3 | 1.5 | 13.5 | 10.6 | inactive |
| MCHR2 | 1 | 0.983 | 9.88 | 9.38 | inactive |
| MCHR2 | 2 | -0.673 | -1.76 | 3.9 | inactive |
| MCHR2 | 3 | -0.368 | 0.377 | 3.38 | inactive |
| PODNL1 | 1 | -0.614 | -1.36 | 4.87 | inactive |
| PODNL1 | 2 | 0.931 | 9.52 | 8.31 | inactive |
| PODNL1 | 3 | 0.295 | 5.04 | 6.02 | inactive |
